Source: the supplement of paper PMC10338343
± gives the standard deviation. This is a selection; strong and weak results do not stand in their true shares. Many entries were measured with a wide error.

system: MILI (PIWIL2) piRISC loaded with L1MC piRNA (26 nt); assay: pre-steady-state target cleavage rate (min^-1); MIWI and MILI are mouse PIWI proteins and EfPiwi is from a freshwater sponge; tags in brackets are library labels; higher = faster piRNA-guided slicing of the target; settings: guide: L1MC piRNA 5'p-UAACUAAAUACUAUGCAAGCUGUAGG; auxiliary factor: 500 nM mouse GTSF1
Protocol: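 Cleave-'n-Seq: a library of target RNAs (target site embedded in constant flanks, ACAGCATTCCGCGTTAGTGATATCCG... 5' flank; DNA-blocked outside the site) at 0.1 nM was incubated with 1 nM active mouse MILI or MIWI piRISC (synthetic 5'-monophosphorylated piRNA guide) with or without 500 nM mouse GTSF1 at 33 °C for 1 min to 16 h. Uncleaved targets were sequenced and normalised to non-target controls, and the pooled three trials were fitted to a burst-and-steady-state model to give the pre-steady-state cleavage rate (min^-1; k3 is constrained to at most 1e-4). Sequence is the target site only; target names encode pairing extent (gX:gY) and contiguous / 1-mismatch / 2-mismatch / bulge geometry. Fits with R² ≤ 0 are excluded.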

| Sequence | pre-steady-state target cleavage rate |
| --- | --- |
| UCCUGGAUGUCCAUUGCAUAGUAUUUAGUUA | 0.127 ± 0.032 |
| UCCUGGAUCAGCUUGUAUAGUAUUUAGUUA | 0.301 ± 0.015 |
| UCCUGGAUGUCCUUGCAUAGUAAUUUAGUUA | 0.0401 ± 0.013 |
| UCCUGCUACAGCUUGCAUAGGUAUUUAGUUA | 0.00815 ± 0.0047 |
| UCCUGGAACAGCUUGCAUUCUAUUUAGUUA | 0.0609 ± 0.014 |
| UCCUGGUACAGCAUGCAUAGUAUUUACAAA | 0.127 ± 0.033 |
| UCCUGGAUCAGCUUGCAUAGUAUGUUAGUUA | 0.199 ± 0.017 |
| UCCUGCUACACGUUGCAUAGUAUUUACAAA | 0.0287 ± 0.01 |
| UCCUGGAUCAGCUUCCAUAGUAUUUUGUUA | 0.00236 ± 0.0054 |
| UCCUCCUAGACCUUGCAUAGUAUUUAGUUA | 0.237 ± 0.024 |
| UCCUGGUGACAGCUUGCAUAGUAUUUAGUUA | 0.507 ± 0.044 |
| UCCUGGAUCAGCUUGCAUAGUUAUUACAAA | 0.00236 ± 0.005 |
| UCCUCCAUCAGCUUGCAUAGUAUUUAGUAA | 0.165 ± 0.024 |
| UCCUGGAUGUCCUUGAAUAGUAUUUAGUUA | 0.122 ± 0.023 |
| UCCUGGAUGUGCUAGCAUAGUAUUUAGAAA | 0.0422 ± 0.012 |

same assay, conditions: guide: L1MC piRNA 5'p-UAACUAAAUACUAUGCAAGCUGUAGG; auxiliary factor: none (no GTSF1)

| Sequence | pre-steady-state target cleavage rate |
| --- | --- |
| UCCUGGAUGUGCUUGCAUUGUAUUUAGUAA | 0.00232 ± 0.0036 |
| UCCUGGAUGUCCAUUGCAUAGUAUUUAGUUA | 0.00284 ± 0.0039 |
| UCCUGGAUGUCGAAGCAAAGUAUAUAGUUA | 0.000159 ± 0.046 |
| UCCUGGAUGUCGUUGCAAAGUAUUUUGUUA | 0.00153 ± 0.0048 |
| UCCUGGAUGUCCUUGCAUAGUAAUUUAGUUA | 0.00555 ± 0.0026 |
| UCCUGGAUGAGCUUGCCAUAGUAUUUAGUUA | 0.00123 ± 0.006 |
| UCCUCCUUCAGCUUGCAUAGAAUUUAGUUA | 0.00196 ± 0.0029 |
| UCCUGGUACAGCUUGCAUUCAAUUUAGUUA | 0.00161 ± 0.0069 |
| UCCUGGUACAGCUUGCAUAGAAUUUAGUAA | 0.00134 ± 0.0061 |
| UCCUGCUACAGCUUGCAUAGGUAUUUAGUUA | 0.00421 ± 0.0024 |
| UCCUGGAACAGCUUGCAUUCUAUUUAGUUA | 0.00151 ± 0.0041 |
| UCCUGGUACAGCAUGCAUAGUAUUUACAAA | 0.00126 ± 0.005 |
| UCCUGGAUCAGCUUGCAUAGUAUGUUAGUUA | 0.00633 ± 0.0025 |
| UCCUGGAACAGCUUGCAUAGAUAAAUCAAA [g11:g23:cont:t1A] | 0.00048 ± 0.012 |
| UCCUGCUACACGUUGCAUAGUAUUUACAAA | 0.000896 ± 0.0075 |
| UCCUGGAUCAGCUUCCAUAGUAUUUUGUUA | 0.000378 ± 0.016 |
| UCCUCCUAGACCUUGCAUAGUAUUUAGUUA | 0.00751 ± 0.0025 |
| UCCUGGAUGUCGAAGCAUAGUAUUCUAGUUA | 0.00158 ± 0.0033 |
| UCCUGGAUGUCGAACCAUAGUAUUUAGUUG [g2:g15:cont:t1G] | 0.00014 ± 0.016 |
| UCCUGGAACAGCUACGAUAGUAUUUAGUAA | 0.000579 ± 0.0073 |
| UCCUGGAUCAGCUUGCAAUCUAUUUAGUUA | 0.00127 ± 0.007 |
| UCCUGGAUCAGCUUGCAUAGUUAUUACAAA | 0.00118 ± 0.0042 |
| UCCUCCAUCAGCUUGCAUAGUAUUUAGUAA | 0.00315 ± 0.0022 |
| UCCUGGAUGAGCUUGCAUAGUAUUUUCUUA | 0.00148 ± 0.0057 |
| UCCUGGAUGUCCUUGAAUAGUAUUUAGUUA | 0.011 ± 0.0029 |
| UCCUGGAUGUGCUAGCAUAGUAUUUAGAAA | 0.000711 ± 0.008 |
